# In PubChem BioAssay AID1259354 (Paczesny and Yang Labs, IUPUI and University of Michigan, 2018):
# Chains of the proteins cited; added tags and fusions are not shown. Lines headed by an entry give the natural chain unless they say otherwise; changes in a name come on top.
# UniProt Q01638: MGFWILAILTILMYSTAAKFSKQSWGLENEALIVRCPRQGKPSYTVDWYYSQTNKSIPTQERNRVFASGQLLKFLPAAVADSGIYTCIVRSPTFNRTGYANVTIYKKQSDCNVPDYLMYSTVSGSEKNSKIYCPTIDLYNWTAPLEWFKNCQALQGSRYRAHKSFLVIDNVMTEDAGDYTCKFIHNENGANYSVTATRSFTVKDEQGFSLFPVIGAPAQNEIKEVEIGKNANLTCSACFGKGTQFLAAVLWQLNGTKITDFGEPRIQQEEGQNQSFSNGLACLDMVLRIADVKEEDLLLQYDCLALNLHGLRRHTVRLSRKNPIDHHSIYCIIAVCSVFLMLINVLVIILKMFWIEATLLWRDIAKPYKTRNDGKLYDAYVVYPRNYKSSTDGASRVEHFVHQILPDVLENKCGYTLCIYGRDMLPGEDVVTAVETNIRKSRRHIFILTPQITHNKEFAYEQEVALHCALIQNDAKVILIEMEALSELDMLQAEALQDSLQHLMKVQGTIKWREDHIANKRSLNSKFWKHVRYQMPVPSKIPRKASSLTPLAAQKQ
# Hit rate of the full screen: of about 78,000 compounds, about 1,800 (2.3%) were called active. This list was built around the results that the source calls inconclusive (neither active nor inactive); the mix of calls is not that of the screen. No stated cut-off is given here; in the data, active means inhibition above about 30%; inconclusive means mostly about 10% to 28%; inactive means weaker than that.
# Biological target: Interleukin-1 receptor-like 1 (Homo sapiens) (UniProt Q01638)
# Test: blocks human ST2 binding to IL-33, primary screen, biochemical, AlphaLISA (AID 1259354)
# Settings: AlphaLISA ST2-Fc/biotin-IL-33 interaction, 1 h; at 17 µM, active compounds read high
row,SMILES,inhibition
1,CCOC(=O)C1(C/C=C/c2ccccc2)CCCN(C(=O)CCc2scnc2C)C1 (stereo unspecified),inactive
2,COc1ccc(NC(=O)O[C@@H]2CO[C@H]3[C@@H]2OC[C@@H]3NS(=O)(=O)c2ccc(Cl)cc2)cc1,inconclusive: 10%
3,CCOC(=O)c1cnc2c(ccc3ccccc32)c1Nc1cccc(C(=O)OC)c1,inactive
4,COCCN(Cc1cnn(C)c1)C(=O)c1c(F)ccc(C)c1F,inconclusive: 11%
5,CN(Cc1ccccc1)C(=O)Cc1c(C(=O)O)[nH]c2ccc(Cl)cc12,inactive
6,CN1CCc2c(sc3c2C(=O)NC(c2cn(Cc4ccccc4)c4ccccc24)N3)C1 (stereo unspecified),inconclusive: 20%
7,CCN(CC)S(=O)(=O)c1ccc(-c2csc(=Nc3ccc(F)cc3)n2CCCO)cc1,active: 43%
8,CCN(C(=O)Cc1c(C(=O)O)[nH]c2ccc(Cl)cc12)c1ccccc1,inactive
9,O=C1S/C(=C/c2ccc3c(c2)OCO3)C(=O)N1CN1CCCCC1,inconclusive: 22%
10,COC[C@H]1CCCN1[C@@H]1[C@H](O)[C@H](CO)O[C@@H]1CNC(=O)Nc1cccc(OC)c1,inconclusive: 11%
11,O=C(Nc1ccc(S(=O)(=O)Nc2ncccn2)cc1)c1ccccc1Cl,inactive
12,COc1ccc(C(=O)CC2(O)C(=O)Nc3ccc(Cl)cc32)cc1OC (stereo unspecified),inactive
13,Brc1c(NC2=NCCN2)ccc2nccnc12,inconclusive: 18%
14,COc1ccc(Nc2cc(C)nc(Nc3ccc(NC(=O)C4CCCCC4)cc3)n2)cc1,active: 34%
15,O=c1[nH]n(-c2cccc(Br)c2)c(O)c1C=C1C=Nc2ccccc21,inconclusive: 22%
16,CN(C)S(=O)(=O)NCc1cccnc1Oc1ccc(F)c(F)c1,inconclusive: 11%
17,COc1cccc(NC(=O)NC[C@H]2O[C@@H](CO)[C@@H](O)[C@@H]2N(C)Cc2ccccc2)c1,inconclusive: 20%
18,Cc1oc(N=Cc2cccc(Cl)c2)c(C#N)c1C,inconclusive: 25%
19,CC(=O)N1N=C(c2ccc(C)c([N+](=O)[O-])c2)OC1(C)C,inconclusive: 13%
20,O=C(Cn1c(=O)c2sccc2n(CC(=O)Nc2ccccc2)c1=O)NCc1ccco1,inconclusive: 11%
21,O=C(Nc1ccc(-c2nc3ccccc3[nH]2)cc1)c1ccc2c(c1)OCCO2,inconclusive: 29%
22,CC(=O)C1=C(C)OC(N)=C(C#N)C1c1ccc(OCc2ccccc2)cc1 (stereo unspecified),inconclusive: 10%
23,CN(C)c1oc(-c2ccc(Cl)cc2)nc1S(=O)(=O)c1ccccc1,inconclusive: 23%

# 5 records drawn at random from those above:
row,SMILES,inhibition
4,COCCN(Cc1cnn(C)c1)C(=O)c1c(F)ccc(C)c1F,inconclusive: 11%
22,CC(=O)C1=C(C)OC(N)=C(C#N)C1c1ccc(OCc2ccccc2)cc1 (stereo unspecified),inconclusive: 10%
18,Cc1oc(N=Cc2cccc(Cl)c2)c(C#N)c1C,inconclusive: 25%
5,CN(Cc1ccccc1)C(=O)Cc1c(C(=O)O)[nH]c2ccc(Cl)cc12,inactive
12,COc1ccc(C(=O)CC2(O)C(=O)Nc3ccc(Cl)cc32)cc1OC (stereo unspecified),inactive

# Already shown: two of the compounds above.
row,SMILES,inhibition
15,O=c1[nH]n(-c2cccc(Br)c2)c(O)c1C=C1C=Nc2ccccc21,inconclusive: 22%
16,CN(C)S(=O)(=O)NCc1cccnc1Oc1ccc(F)c(F)c1,inconclusive: 11%

# Continued.

row,SMILES,inhibition
1,COC(=O)C1C(=O)C2=C(CC1C)NC(C)=C(C(=O)OC1CCCCCC1)C2c1ccccc1F (stereo unspecified),inconclusive: 12%
2,COc1ccccc1N1CCN(C(=O)Nc2ccccc2)CC1,inconclusive: 19%
3,Cc1nn(-c2ccccc2)c(C)c1CC(=O)NC(c1nccn1C)C1CC1 (stereo unspecified),inconclusive: 15%
4,COC(=O)CN1C(c2ccc(O)cc2)Nc2ccc(Br)cc2C1c1ccccc1 (stereo unspecified),inconclusive: 11%
5,COc1ccc(Nc2cc(C)nc(Nc3ccc(NC(=O)c4cccc(Cl)c4)cc3)n2)cc1,inconclusive: 19%
6,Cc1nc(CN2CCN(c3nc4nonc4nc3NCc3ccccc3)CC2)cs1,inactive
7,COc1ccccc1NC(=O)C1=C(C)Nc2nc3ccccc3n2C1c1ccc([N+](=O)[O-])cc1 (stereo unspecified),inconclusive: 16%
8,Cc1cc(NC(=O)c2cc(-c3cccs3)on2)nn1Cc1ccc(Cl)cc1,inconclusive: 11%
9,CCN(CCNS(C)(=O)=O)c1ccc(N)c(C)c1,active: 35%
10,Cc1ncc2c(c1CNC(=O)c1ccsc1)CCN(C(=O)c1cccc(-c3ccc(F)cc3)c1)C2,inconclusive: 16%
11,Cc1cccc(-n2ncc3c(NC4CCCCC4)ncnc32)c1,inconclusive: 10%
12,Cc1ccc(C)c(OCCN(C)Cc2nc3ccccc3n2C)c1,inconclusive: 11%
13,O=C1S/C(=C\c2ccccc2Cl)C(=O)N1c1ccc(O)cc1,active: 38%
14,COc1ccc(Br)cc1CN1CCC(N2CCCCC2)CC1,inconclusive: 14%
15,Cc1c(C(=O)N2Cc3cnc(C(C)(C)C)nc3C2)sc2ccccc12,inconclusive: 21%
16,COCc1cc(C)nc2sc(C(=O)c3ccccc3)c(NC(=O)c3ccccc3)c12,inactive
17,CCCN(Cc1ccccc1OC)C(=O)CC1CNCCO1 (stereo unspecified),inconclusive: 11%
18,CCOc1ccc(OCC)c(S(=O)(=O)n2cnc3cc(C)c(C)cc32)c1,inconclusive: 13%
19,COC(=O)c1c(NC(=O)c2cc3ccccc3oc2=O)sc2c1CCC(C)C2 (stereo unspecified),inactive
20,O=C(Nc1cccc(-n2cccn2)c1)C1CCCN(Cc2cn[nH]c2-c2ccccc2)C1 (stereo unspecified),inconclusive: 28%
21,C=CCc1cc(CN2CC[C@H](O)C[C@@H]2C(=O)O)ccc1OC,inconclusive: 11%
22,COC(C)(C)Cn1ccnc1-c1cnc(-c2ccccn2)nc1,inconclusive: 18%
23,COCCN1CC(C(=O)NC(C)(C)c2ccc(OC)c(OC)c2)CCC1=O (stereo unspecified),inactive

row,SMILES,inhibition
1,CCC(C)OC(=O)C1=C(C)NC2=C(C(=O)C(C(=O)OC)C(C)C2)C1c1ccc(OC)c(OC)c1 (stereo unspecified),inactive
2,Cc1ccc(NC2=CC(=NS(=O)(=O)c3ccc(F)cc3)c3ccccc3C2=O)cc1,active: 69%
3,CN(C)CCNC(=O)c1ccc2c(c1)N(Cc1ccc(F)cc1Cl)C(=O)CS2,inactive
4,Cc1cc(C)n2nc(SCc3ccccc3)nc2n1,inconclusive: 14%
5,Cc1cccc(-c2cn[nH]c2C2CCN(c3nc(C(N)=O)cs3)CC2)c1,inconclusive: 21%
6,Cc1ccc2c(C)c(C(=O)N3CCC(Cc4nnc(CO)n4C)CC3)oc2c1,inconclusive: 17%
7,COc1ccc(Nc2ccc(OC)cc2)cc1,active: 70%
8,O=C1Nc2ccccc2S/C1=C\C(=O)N1CCC2(CC1)OCCO2,inconclusive: 10%
9,Cc1ccc(-c2csc(/C(C#N)=C/c3ccccc3[N+](=O)[O-])n2)c(C)c1,active: 57%
10,Cc1nc2ccc(C(=O)N3CCC(CO)(CCCc4ccccc4)CC3)cc2[nH]1,inconclusive: 13%
11,CCOc1ccc(C2C(N3C(=O)c4ccccc4C3=O)C(=O)N2c2cccc(Cl)c2)cc1 (stereo unspecified),inconclusive: 15%
12,COc1cc(CN2CCC(n3cc(CC(C)C)nn3)CC2)ccc1F,inactive
13,COc1ccc(C(=O)NCCCN2CCOCC2)cc1,inconclusive: 11%
14,Cc1ccc2c(c1)c1nc3ccccc3nc1n2CCN1CCOCC1,inactive
15,Cn1cnnc1SCC(=O)NC1CC(=O)N(CCc2ccccc2)C1 (stereo unspecified),inactive
16,CSc1ccccc1NC(=O)c1noc2c1CCC2,inconclusive: 11%
17,CC(=O)c1cc(CN2CCN(Cc3ccc(C)o3)C(CCO)C2)cs1 (stereo unspecified),inconclusive: 17%
18,CC[C@H]1CN(C(=O)c2ccc(F)cc2)CC[C@H]1CC(=O)N1CCC(C(=O)OC)CC1,inconclusive: 10%
19,Cc1ccc([N+](=O)[O-])cc1NC(=O)c1ccc(Br)cc1,inconclusive: 21%
20,Cc1ccccc1-c1cc(N2CCN(S(=O)(=O)c3ccccc3)CC2)ncn1,inconclusive: 14%
21,O=C(/C=C/c1ccc2c(c1)OCO2)Nc1ccc(I)cc1,inconclusive: 19%
22,CCc1ccc(-c2nc(CSCC(=O)NCCN(C)C)c(C)o2)cc1,inconclusive: 11%
23,O=C(C[C@@H]1O[C@H](CNS(=O)(=O)c2ccc(Cl)cc2)[C@@H](O)[C@H]1O)N1CCc2ccccc21,inconclusive: 14%

row,SMILES,inhibition
1,COc1ccc(Nc2cc(C)nc(Nc3ccc(NC(=O)c4cc(Cl)ccc4OC)cc3)n2)cc1,inconclusive: 14%
2,O=C(CCCc1ccccc1)Nc1ccccc1-c1ccccc1,inactive
3,O=C(Nc1nccs1)C1Cc2ccccc2CN1S(=O)(=O)c1cccs1 (stereo unspecified),inactive
4,CN(C)CCC1CN(C(=O)CCC2CCCCC2)CCO1 (stereo unspecified),inconclusive: 11%
5,O=C1NCCN(C2CCCC2)C1CC(=O)N1CCN(C(=O)c2ccco2)CC1 (stereo unspecified),inconclusive: 11%
6,Cc1cc(NC(=O)CSc2nc3c(sc4ccccc43)c(=O)n2Cc2ccccc2)n[nH]1,inactive
7,O=C(NCC1OCCc2ccccc21)c1cn(Cc2c(F)cccc2F)nn1 (stereo unspecified),inconclusive: 10%
8,Cc1nc(C(=O)N2CCC(CCC(=O)N3CCC(Cc4ccccc4)CC3)CC2)cs1,inactive
9,Cc1ccccc1CN1CCC(CN(Cc2cccnc2)C(=O)c2ccccc2F)CC1,inconclusive: 15%
10,CCOc1ccc(NC(=O)c2cccc(Br)c2)cc1,inconclusive: 19%
11,CC(CCNC(=O)c1cc(Cn2cnc3ccccc32)[nH]n1)n1ccnc1 (stereo unspecified),inconclusive: 16%
12,O=C(CCCCCN1C(=O)c2ccccc2C1=O)Nc1ccc(Br)cc1,inconclusive: 14%
13,O=C(NCc1cccnc1-n1ccnc1)C1CCCc2c1[nH]c1ccccc21 (stereo unspecified),inconclusive: 14%
14,COc1cccc(OCc2cc(C(=O)NCC3(N4CCCCC4)CCCCC3)no2)c1,inconclusive: 15%
15,COc1ccc(C(=O)NCC2CCCN(S(C)(=O)=O)C2)c(OC)n1 (stereo unspecified),inconclusive: 13%
16,CCc1ccccc1-c1ccc2cc[nH]c(=O)c2c1,inconclusive: 21%
17,Cn1c(=O)cc(SCC(=O)Nc2ccc(F)cc2Cl)c2ccccc21,inactive
18,O=C(Nc1ccccc1)O[C@@H]1CO[C@H]2[C@@H]1OC[C@@H]2Nc1nccc(-c2ccccc2)n1,inconclusive: 12%
19,O=C(CCCCCN1C(=O)c2ccccc2C1=O)Nc1ccc(Cl)cc1,inactive
20,O=C(c1cccc(C(F)(F)F)c1)C1CCCN(C(=O)c2ccoc2)C1 (stereo unspecified),inconclusive: 10%
21,O=C(Nc1sc2c(c1C(=O)NCC1CCCO1)CCCC2)c1ccco1 (stereo unspecified),inconclusive: 19%
22,O=C(O)CSc1ccc(C(=O)N2CCOCC2)cc1[N+](=O)[O-],inconclusive: 12%
